Assay results: PubChem BioAssay AID2685 (National Center for Advancing Translational Sciences (NCATS), 2010)
The other results are listed elsewhere or left out. Shown are side measurements of this screen, not its main read-out; they come without a call. Most of these compounds were active or inconclusive in the main read-out, so they are no random draw. Potencies come from curve fits of mixed quality, noted in brackets.

Test: qHTS Assay for Lipid Storage Modulators in Drosophila S3 Cells;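 for cell number change: cells counted by Cell Tracker Red CMTPX staining in the red channel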
Details: BODIPY lipid droplet fluorescence, 18-24 h; for cell number change: measured here: cell count max response, cells fed with added oleic acid
Method in brief: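 Drosophila S3 cells loaded with oleic acid (400 uM, as added) and compounds at several concentrations; lipid droplets imaged by 488-nm laser-scanning cytometry, 500–530 nm intensity and object ratio to cell channel. Percent activity normalized to 20 uM Triacsin C.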

[1] = measured here: lipid fluorescence (Fed channel) AC50, cells fed with added oleic acid
[2] = measured here: cell number channel AC50, cells fed with added oleic acid

| Compound | cell number change [%] | AC50 [1] | AC50 [2] |
| --- | --- | --- | --- |
| Cc1ccc(S(=O)(=O)NC(C)C(c2cccs2)N2CCOCC2)cc1 (stereo not drawn) | 9.25 | 1.46 µM [rising, full curve, poor fit] |  |
| O=C(c1cc(C2CC2)nc2ccc(Br)cc12)N1N=C(C(F)F)CC1(O)C(F)F (stereo not drawn) | -57.6 | 16.4 µM [falling, single point] | 16.4 µM [falling, single point] |
| Cc1ccccc1C(C(=O)NC1CCCC1)N(C(=O)CNC(=O)c1ccco1)c1cccnc1 (stereo not drawn) | 10.9 | 1.16 µM [rising, full curve, poor fit] |  |
| Cc1ccc(-n2nc3c(c2NC(=O)c2c(-c4ccccc4Cl)noc2C)CSC3)cc1 | 10 |  |  |
| COc1ccc(N(CC(=O)NC2CCCCC2)S(=O)(=O)c2c(C)[nH]c(=O)[nH]c2=O)cc1 |  | 2.91 µM [rising, single point] | 0.58 µM [rising, single point] |
| CCSC1=NSC2=NC(=O)/C(=C\c3coc4ccccc4c3=O)C(=N)N12 | -7.45 | 7.31 µM [falling, partial curve] | 6.51 µM [falling, single point] |
| COc1cccc(C(=O)Oc2ccccc2/C=C\C(=O)c2cc3ccccc3o2)c1 | -10.6 | 2.06 µM [falling, full curve] |  |
| Cc1cc(NC(=O)COc2ccccc2)ccc1Cl | -4.46 |  |  |
| COCCNC(=O)Cn1c(=O)n(C)c2ccccc21 | -18.2 | 0.206 µM [falling, full curve] |  |
| CC(NC(=O)CN1C(=O)NC2(CCCCCC2)C1=O)c1ccccc1 (stereo not drawn) | 21.7 | 6.51 µM [falling, partial curve, poor fit] | 6.51 µM [falling, single point] |
| CC(C)(C)C1=CC(O)(c2ccccc2)C=C(C(C)(C)C)C1=O | -52.8 | 20.6 µM [falling, partial curve] | 14.6 µM [falling, single point] |
| OC[C@H]1O[C@@H](n2cnc3c(Nc4ccccc4)ncnc32)[C@H](O)[C@@H]1O | 38.8 | 29.1 µM [rising, single point] | 29.1 µM [rising, single point] |
| COc1ccc(CNC(=O)C(C)OC(=O)c2cccs2)cc1 (stereo not drawn) | -13.5 |  | 2.91 µM [falling, partial curve] |
| CCc1ccc(N2NC(=O)/C(=C/C=C/c3ccco3)C2=O)cc1 | -38 | 11.6 µM [falling, partial curve, poor fit] | 11.6 µM [falling, partial curve, poor fit] |
| CCn1nc(C)c(CN2CCC(n3nccc3NC(=O)c3ccc4c(c3)OCO4)CC2)c1C | 14.9 | 0.1 µM [rising, full curve, poor fit] |  |
| CCOc1nc(C)nc(NC(=O)NS(=O)(=O)c2ccccc2Cl)n1 | 20.4 | 29.1 µM [falling, single point] |  |
| COc1ccc(CCNC(=S)NCCc2c[nH]c3ccccc23)cc1 | 58.9 |  | 13 µM [rising, partial curve, poor fit] |
| O=c1c2ccccc2nc2n1C(CSCc1ccc(Cl)cc1Cl)CS2 (stereo not drawn) | -9.59 | 6.51 µM [rising, single point] |  |
| COc1ccc(C2NC(=O)N(C)C3=C2C(=O)CC(C)(C)C3)cc1OC (stereo not drawn) | 4.23 |  |  |
| CCOc1ccc(Cl)cc1/C=N/NC(=O)CNC(=O)c1ccccc1 | 28.6 | 1.46 µM [rising, full curve] |  |

| Compound | cell number change [%] | AC50 [1] | AC50 [2] |
| --- | --- | --- | --- |
| Cc1cc(C)nc(NC(=NCCc2c[nH]c3ccccc23)NC(=O)Nc2cccc([N+](=O)[O-])c2)n1 | -5.46 | 0.0058 µM [falling, full curve, poor fit] | 1.64 µM [falling, partial curve] |
| CN(Cc1ccccc1NCC(=O)Nc1ccccc1C#N)C1CCCCC1 | 51.6 | 29.1 µM [rising, single point] | 23.1 µM [rising, single point] |
| CCCN(CC(=O)Nc1ccccc1C)C(=O)c1oc2ccc(OCC)cc2c1C | 20.4 | 0.092 µM [rising, full curve, poor fit] | 0.116 µM [rising, full curve, poor fit] |
| CCc1cccc(CC)c1NC(=O)C1CCN(C(=O)c2ccco2)CC1 | 19.2 |  |  |
| N/C(=N\N=C\c1ccc([N+](=O)[O-])cc1)c1nonc1N | 36 | 0.116 µM [rising, full curve] | 0.651 µM [rising, partial curve] |
| COc1ccc(NC(=O)COn2nnc3ccc(Cl)cc32)cc1OC | 68.6 | 29.1 µM [rising, single point] | 29.1 µM [rising, single point] |
| CN(C)CCN(C(=O)c1ccc2ccccc2c1)c1nc2cc3c(cc2s1)OCCO3 | 32.3 | 0.82 µM [rising, full curve, poor fit] | 1.03 µM [rising, full curve, poor fit] |
| O=C(NCCCN1CCOCC1)c1cn(-c2ccccc2)nc1-c1cccs1 | 2.81 |  |  |
| C/C(=N\NS(=O)(=O)c1ccc(Br)cc1)c1ccncc1 | 16.2 | 29.1 µM [rising, single point] |  |
| CCN(CC(=O)Nc1ccc(NC(C)=O)cc1)CC(=O)Nc1ccc(F)c(Cl)c1 |  | 0.411 µM [falling, single point] |  |
| CC1CCCCN1CCCNC(=O)CCCN1C(=O)c2cccnc2Sc2ccccc21 (stereo not drawn) | 23.6 |  | 2.31 µM [rising, full curve, poor fit] |
| Cc1cc(NC(=O)c2cnn3c(C(F)F)cc(-c4ccccc4)nc23)no1 | 3.63 |  |  |
| CC(NC(=O)C1CCN(C(=O)c2cccs2)CC1)c1ccc(S(N)(=O)=O)cc1 (stereo not drawn) | 5.76 |  |  |
| COc1ccc(C(C(=O)NC(C)(C)C)N(C(=O)CCC(=O)Nc2cc(C)on2)c2cc(C)cc(C)c2)cc1 (stereo not drawn) | 7.83 |  |  |
| COC(=O)C1=C(N)Oc2cc(C)[nH]c(=O)c2C1c1ccccc1OC (stereo not drawn) | 25.1 |  |  |
| OCCNCCNCc1ccccc1OCc1ccccc1 | 156 |  |  |
| Cc1nn(Cc2cccc(Oc3ccccc3)c2)c(C)c1NC(=O)NC12CC3CC(CC(C3)C1)C2 | -33.4 | 2.31 µM [falling, full curve, poor fit] | 2.59 µM [falling, full curve, poor fit] |
| CCOc1ccc(NC(=O)C2CCCN(S(=O)(=O)c3ccc(-n4cnnn4)cc3)C2)cc1 (stereo not drawn) | -39.7 |  | 6.51 µM [falling, full curve, poor fit] |
| CCCc1cc(=O)[nH]c(SCC)n1 | -24.7 | 14.6 µM [falling, partial curve] |  |
| COCC(C)n1c(SC(C)C(=O)NC2CCCCC2C)nc2ccccc2c1=O (stereo not drawn) | 28.4 | 25.9 µM [rising, partial curve, poor fit] |  |

| Compound | cell number change [%] | AC50 [1] | AC50 [2] |
| --- | --- | --- | --- |
| CN(Cc1ccc(F)cc1)C(=O)CNC(=O)c1ccc2c(c1)OCO2 | -12.6 | 5.8 µM [falling, partial curve] |  |
| COC(=O)/C(=C/c1ccco1)NC(=O)c1ccccc1 | 23.9 | 0.291 µM [rising, full curve, poor fit] |  |
| O=C(Cc1ccc2c(c1)OCCO2)N1CCN(S(=O)(=O)c2cccs2)CC1 | 16.6 |  |  |
| COc1ccc(N=c2oc3c(OC)cccc3cc2C(=O)NCc2ccco2)c(OC)c1 | -4.41 | 18.4 µM [rising, single point] |  |
| CCN1CCCC1CNCc1cccc(OC)c1OCc1ccccc1F (stereo not drawn) | 6.72 | 29.1 µM [falling, partial curve] |  |
| COc1ccc([C@H]2CC(=O)C=C(c3cc(F)ccc3F)C2)cc1OC | -10.2 | 16.4 µM [falling, single point] |  |
| CCn1cnc2c(Nc3cc(F)cc(F)c3)nc(C#N)nc21 |  | 5.17 µM [falling, single point] |  |
| COc1ccc(C2=NS(=O)(=O)N(C)C(C(=O)NC(C)c3ccccc3)=C2)cc1 (stereo not drawn) | 0.865 |  |  |
| CCC(C)(C)n1nnnc1CN(Cc1cccs1)Cc1cc2cc(OC)ccc2[nH]c1=O | -28.3 | 1.16 µM [rising, full curve] |  |
| COc1cc(CNc2ccc(CNc3ncn[nH]3)cc2)ccc1OCC(=O)NC(C)(C)C | 47.5 | 2.91 µM [rising, full curve] | 7.31 µM [rising, partial curve, poor fit] |
| CCC(=O)Nc1ccc(NC(=O)CSc2nnnn2C2CCCC2)cc1C | -2.82 |  |  |
| COc1ccccc1CNC(=O)c1cn(C)c(=O)c2cc(OC)c(OC)cc12 | -3.98 |  |  |
| CC(=O)Nc1ccc(NC(=O)COc2ccc(-c3ccccc3)cc2)cc1 | 9.35 |  |  |
| Cc1ccccc1C(=O)Nc1ccc(Br)c(C)n1 | -18.1 |  |  |
| Oc1oc(-c2ccccc2)nc1C=Nc1cccc2ccccc12 |  | 6.51 µM [rising, single point] |  |
| Cc1cccc(-c2noc(CN(C(=O)/C=C/c3ccccc3Cl)C(C)C)n2)c1 | 30.6 | 2.31 µM [rising, partial curve] | 9.2 µM [rising, partial curve, poor fit] |
| CCN(CC1CCCO1)C(=O)C1CCN(C2CCN(Cc3ccccc3C)CC2)CC1 (stereo not drawn) |  |  | 6.31 µM [falling, single point] |
| O=C(CSc1nnc(COc2ccccc2)o1)Nc1ccc(F)cc1 | -21.9 | 6.51 µM [falling, single point] |  |
| COc1cc(OC)cc(C(=O)NC(C(=O)NNC(=O)c2ccc(C)cc2)C(C)C)c1 (stereo not drawn) | -2.56 | 0.00517 µM [rising, full curve, poor fit] |  |

Record cards, as listed above:
`CCOc1ccc(Cl)cc1/C=N/NC(=O)CNC(=O)c1ccccc1` is listed with cell number change [%]: 28.6; AC50 [1]: 1.46 µM [rising, full curve]
`CCN1CCCC1CNCc1cccc(OC)c1OCc1ccccc1F` (stereo not drawn) is listed with cell number change [%]: 6.72; AC50 [1]: 29.1 µM [falling, partial curve]
`O=C(Cc1ccc2c(c1)OCCO2)N1CCN(S(=O)(=O)c2cccs2)CC1` is listed with cell number change [%]: 16.6
`N/C(=N\N=C\c1ccc([N+](=O)[O-])cc1)c1nonc1N` is listed with cell number change [%]: 36; AC50 [1]: 0.116 µM [rising, full curve]; AC50 [2]: 0.651 µM [rising, partial curve]
